Test results published in PMC11012097.
Results are given in words; binding and its absence hold for the method and conditions named. For some of these results: Binding seen in cells or lysates may run through a third protein. Some results given as binding are weak or reduced against the parent protein; the word gives no strength. For some of these results: Tags and fused reporters may be left off the sequences shown.

The chains behind the UniProt entries cited, without tags or fusion partners. Where a name states a change or a piece, a line headed by the entry shows the natural chain unless it says otherwise. Residues count along the entry.
UniProt O75306, residues 34-463: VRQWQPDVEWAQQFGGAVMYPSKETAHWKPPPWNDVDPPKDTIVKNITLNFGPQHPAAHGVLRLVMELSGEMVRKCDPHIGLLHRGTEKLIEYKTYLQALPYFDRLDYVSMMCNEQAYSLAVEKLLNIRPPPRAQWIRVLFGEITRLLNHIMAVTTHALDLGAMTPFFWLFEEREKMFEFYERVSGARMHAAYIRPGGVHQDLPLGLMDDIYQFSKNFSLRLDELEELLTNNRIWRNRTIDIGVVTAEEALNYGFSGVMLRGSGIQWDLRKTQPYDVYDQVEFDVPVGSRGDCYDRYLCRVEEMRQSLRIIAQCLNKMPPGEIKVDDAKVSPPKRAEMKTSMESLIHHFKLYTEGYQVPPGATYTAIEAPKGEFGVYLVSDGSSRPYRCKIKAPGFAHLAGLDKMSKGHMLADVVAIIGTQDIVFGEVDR
UniProt P31001: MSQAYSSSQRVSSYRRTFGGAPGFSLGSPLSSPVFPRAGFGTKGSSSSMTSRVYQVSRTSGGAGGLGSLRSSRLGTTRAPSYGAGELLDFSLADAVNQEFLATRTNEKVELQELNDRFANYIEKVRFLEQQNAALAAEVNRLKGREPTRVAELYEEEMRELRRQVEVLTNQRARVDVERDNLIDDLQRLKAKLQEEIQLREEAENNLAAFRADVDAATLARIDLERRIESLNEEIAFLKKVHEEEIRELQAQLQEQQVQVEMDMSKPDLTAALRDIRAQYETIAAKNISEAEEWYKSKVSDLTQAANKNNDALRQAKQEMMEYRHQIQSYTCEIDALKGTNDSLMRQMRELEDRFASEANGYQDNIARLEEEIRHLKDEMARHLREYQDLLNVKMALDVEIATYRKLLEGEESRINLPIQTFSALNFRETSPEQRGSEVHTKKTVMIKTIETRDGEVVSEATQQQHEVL
amino terminal domain (1–103 aa) of mouse desmin: residues 1-103 of P31001
UniProt Q91WD5, residues 34-463: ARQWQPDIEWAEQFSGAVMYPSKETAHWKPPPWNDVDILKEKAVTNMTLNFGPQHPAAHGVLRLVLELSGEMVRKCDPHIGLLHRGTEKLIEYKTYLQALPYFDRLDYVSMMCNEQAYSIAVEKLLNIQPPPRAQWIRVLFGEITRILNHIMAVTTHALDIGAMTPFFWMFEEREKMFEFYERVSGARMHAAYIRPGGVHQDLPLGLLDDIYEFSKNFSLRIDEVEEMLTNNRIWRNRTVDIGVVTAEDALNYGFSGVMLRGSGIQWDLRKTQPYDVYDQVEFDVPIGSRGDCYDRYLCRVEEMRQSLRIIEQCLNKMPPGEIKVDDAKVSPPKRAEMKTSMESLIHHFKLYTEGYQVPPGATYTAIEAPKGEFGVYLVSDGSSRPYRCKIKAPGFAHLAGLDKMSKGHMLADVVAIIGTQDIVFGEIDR

How the values were obtained:
[1] = target: T1, GST–saposin D fragment 412–524 aa (human) (UniProt P07602); experiment: pull-down; GST, GST–NDUFS2 or GST–saposin D on glutathione Sepharose mixed with total extracts of transfected COS-7 cells, room temperature 2 h; Western blot with anti-desmin; only the target purified
T1 sequence: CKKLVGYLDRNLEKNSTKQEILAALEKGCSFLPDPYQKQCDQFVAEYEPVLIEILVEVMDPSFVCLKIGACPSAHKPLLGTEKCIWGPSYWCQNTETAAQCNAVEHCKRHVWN

[2] = target: GST–NDUFS2 (UniProt O75306); experiment: as above
[3] = target: GST–desmin (UniProt P31001); experiment: pull-down; GST or GST–desmin on glutathione Sepharose mixed with 1 mg total protein cardiac extract of Des−/− mice, room temperature 2 h; Western blot with anti-NDUFS2; only the target purified
[4] = target: amino terminal domain (1–103 aa) of mouse desmin (mouse) (UniProt P31001); experiment: two-hybrid; Matchmaker GAL-4 system; desmin head as bait in pGBKT7 against a human heart muscle cDNA library; positives retested by co-transformation into AH109 on SD/–Ade/–His/–Leu/–Trp/X-α-Gal plates

“DesminΔ1-48 (from UniProt P31001 49-469) (domain or fragment)” was tested, and the binding [1] was “no binding” and the binding [2] was “no binding”.

For “NDUFS2 of total protein cardiac extracts from desmin null (Des−/−) mice (from UniProt Q91WD5 34-463)”, the binding [3] was “binds”.

B1: clone-145, pro-saposin D fragment 1337–2839 bp (domain or fragment, UniProt P07602-1 412-524)
chain: T1 sequence
In the case of B1, the binding [4] is reported as “binds”.
